Test [1] has as its target T1, endogenous RECQ4 (human (endogenous in HEK293)) (UniProt O94761).
T1 sequence: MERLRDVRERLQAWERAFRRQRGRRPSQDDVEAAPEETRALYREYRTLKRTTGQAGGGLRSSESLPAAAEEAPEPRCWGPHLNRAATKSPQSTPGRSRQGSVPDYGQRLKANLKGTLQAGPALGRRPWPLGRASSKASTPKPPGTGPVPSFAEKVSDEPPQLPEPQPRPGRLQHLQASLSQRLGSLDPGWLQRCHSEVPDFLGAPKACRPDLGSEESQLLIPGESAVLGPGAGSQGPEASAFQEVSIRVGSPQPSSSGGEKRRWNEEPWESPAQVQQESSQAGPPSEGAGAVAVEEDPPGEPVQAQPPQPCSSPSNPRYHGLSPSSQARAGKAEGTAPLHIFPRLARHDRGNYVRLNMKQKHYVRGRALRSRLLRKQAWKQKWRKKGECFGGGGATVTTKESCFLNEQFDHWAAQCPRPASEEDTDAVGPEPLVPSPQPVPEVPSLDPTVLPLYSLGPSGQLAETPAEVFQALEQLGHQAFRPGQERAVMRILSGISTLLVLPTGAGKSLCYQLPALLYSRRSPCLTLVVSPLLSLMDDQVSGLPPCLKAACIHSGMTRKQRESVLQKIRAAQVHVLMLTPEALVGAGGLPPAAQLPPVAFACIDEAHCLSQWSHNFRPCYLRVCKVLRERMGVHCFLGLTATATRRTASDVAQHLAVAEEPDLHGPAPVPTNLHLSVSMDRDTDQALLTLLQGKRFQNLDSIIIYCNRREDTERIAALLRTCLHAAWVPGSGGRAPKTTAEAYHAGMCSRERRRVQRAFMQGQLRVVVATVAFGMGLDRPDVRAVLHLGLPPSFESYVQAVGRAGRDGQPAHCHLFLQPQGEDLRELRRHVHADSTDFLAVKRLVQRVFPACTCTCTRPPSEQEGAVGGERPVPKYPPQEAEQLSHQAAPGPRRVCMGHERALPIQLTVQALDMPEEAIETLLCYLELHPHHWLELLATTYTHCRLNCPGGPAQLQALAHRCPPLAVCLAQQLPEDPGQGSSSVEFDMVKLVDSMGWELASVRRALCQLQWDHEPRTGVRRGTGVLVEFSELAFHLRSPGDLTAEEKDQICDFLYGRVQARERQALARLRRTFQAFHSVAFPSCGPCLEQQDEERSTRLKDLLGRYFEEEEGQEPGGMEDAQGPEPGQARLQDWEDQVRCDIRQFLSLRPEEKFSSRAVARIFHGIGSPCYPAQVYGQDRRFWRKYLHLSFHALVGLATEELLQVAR
The test can be described thus: co-IP; endogenous RECQ4 immunopurified with rabbit anti-RECQ4 antibody on protein A agarose from whole-cell extracts of parental HEK293 cells at time points after release from nocodazole; western blot (Fig. 3b).

Sequences of proteins named here, by UniProt entry; tags and fusion partners are left off.
UniProt Q9H1A4: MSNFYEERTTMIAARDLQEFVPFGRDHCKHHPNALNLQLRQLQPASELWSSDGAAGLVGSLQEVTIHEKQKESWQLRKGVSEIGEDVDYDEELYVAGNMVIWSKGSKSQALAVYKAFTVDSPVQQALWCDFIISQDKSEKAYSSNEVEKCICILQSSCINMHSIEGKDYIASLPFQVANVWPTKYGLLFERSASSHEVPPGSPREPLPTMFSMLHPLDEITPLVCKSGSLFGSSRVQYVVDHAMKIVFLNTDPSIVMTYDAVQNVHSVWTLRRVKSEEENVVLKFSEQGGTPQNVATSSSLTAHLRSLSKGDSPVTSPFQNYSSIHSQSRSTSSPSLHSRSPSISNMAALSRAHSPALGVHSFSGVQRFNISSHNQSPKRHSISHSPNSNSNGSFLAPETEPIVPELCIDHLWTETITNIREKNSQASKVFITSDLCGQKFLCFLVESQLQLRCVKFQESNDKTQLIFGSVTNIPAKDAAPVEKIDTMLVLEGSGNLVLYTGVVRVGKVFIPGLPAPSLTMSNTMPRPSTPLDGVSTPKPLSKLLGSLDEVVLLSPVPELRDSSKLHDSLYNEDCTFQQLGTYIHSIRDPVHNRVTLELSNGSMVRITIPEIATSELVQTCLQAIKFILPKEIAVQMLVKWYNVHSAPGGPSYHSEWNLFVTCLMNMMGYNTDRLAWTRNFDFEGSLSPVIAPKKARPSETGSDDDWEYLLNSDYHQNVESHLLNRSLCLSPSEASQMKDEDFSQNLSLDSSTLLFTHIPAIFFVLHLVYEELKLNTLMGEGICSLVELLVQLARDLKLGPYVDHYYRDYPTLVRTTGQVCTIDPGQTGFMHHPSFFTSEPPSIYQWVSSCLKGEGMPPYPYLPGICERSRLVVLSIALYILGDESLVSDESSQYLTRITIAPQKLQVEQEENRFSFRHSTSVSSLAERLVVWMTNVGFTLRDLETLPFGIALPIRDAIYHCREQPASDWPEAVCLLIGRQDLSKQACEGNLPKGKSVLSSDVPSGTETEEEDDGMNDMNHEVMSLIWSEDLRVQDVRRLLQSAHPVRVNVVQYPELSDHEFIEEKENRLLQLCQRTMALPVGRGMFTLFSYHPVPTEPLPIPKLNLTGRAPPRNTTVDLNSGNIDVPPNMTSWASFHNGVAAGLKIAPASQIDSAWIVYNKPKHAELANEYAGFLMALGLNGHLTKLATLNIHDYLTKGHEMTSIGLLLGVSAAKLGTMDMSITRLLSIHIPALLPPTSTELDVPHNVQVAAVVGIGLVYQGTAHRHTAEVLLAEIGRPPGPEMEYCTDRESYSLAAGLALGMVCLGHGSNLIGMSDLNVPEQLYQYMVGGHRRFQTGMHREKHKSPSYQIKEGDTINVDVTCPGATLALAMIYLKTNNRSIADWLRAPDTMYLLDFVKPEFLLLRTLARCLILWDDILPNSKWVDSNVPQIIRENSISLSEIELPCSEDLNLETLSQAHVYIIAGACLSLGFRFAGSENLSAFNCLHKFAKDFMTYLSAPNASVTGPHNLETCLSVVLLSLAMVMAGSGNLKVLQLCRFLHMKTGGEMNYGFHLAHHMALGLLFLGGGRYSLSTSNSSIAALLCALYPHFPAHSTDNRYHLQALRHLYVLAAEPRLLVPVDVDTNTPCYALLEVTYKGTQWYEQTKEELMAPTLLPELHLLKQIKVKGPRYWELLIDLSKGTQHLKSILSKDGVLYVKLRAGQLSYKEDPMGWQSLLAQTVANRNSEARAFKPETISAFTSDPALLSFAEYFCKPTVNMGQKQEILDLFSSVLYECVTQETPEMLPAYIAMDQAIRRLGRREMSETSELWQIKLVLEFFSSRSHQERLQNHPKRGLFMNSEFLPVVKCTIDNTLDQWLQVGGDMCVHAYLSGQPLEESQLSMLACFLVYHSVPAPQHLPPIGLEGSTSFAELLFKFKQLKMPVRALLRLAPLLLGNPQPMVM

Test [2] addresses T2, recombinant His-RECQ4(1-240)-FLAG (human) (UniProt O94761).
T2 sequence: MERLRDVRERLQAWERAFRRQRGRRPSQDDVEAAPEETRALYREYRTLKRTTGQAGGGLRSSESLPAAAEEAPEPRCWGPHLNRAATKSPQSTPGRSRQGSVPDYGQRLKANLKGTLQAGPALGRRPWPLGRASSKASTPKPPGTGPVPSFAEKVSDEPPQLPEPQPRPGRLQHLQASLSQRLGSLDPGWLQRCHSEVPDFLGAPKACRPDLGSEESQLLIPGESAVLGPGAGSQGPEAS
The test can be described thus: pull-down; purified recombinant His-RECQ4-FLAG fragments pre-bound to M2 agarose, incubated with the CB fraction of parental HEK293 cells for 4 h at 4 C; washed with FLAG-A-binding buffer; western blot, normalised to the bait (Fig. 4d, e); only the target purified.

Results are given in words; binding and its absence hold for the method and conditions named. In cells and extracts the contact can be indirect. Some binding calls cover weakened binding; strength is not graded here. For some assays here: Tags and fused reporters may be left off the sequences shown.

As to APC1 (from UniProt Q9H1A4 1-1944), the binding result in test [1] and in test [2] was “binds” in each case.

The record behind these values is article PMC9985596.
